This experiment concerns Salmonella enterica serovar Typhimurium SL1344. Briefly: normalized intracellular growth (luminescence, IQM-normalized) in RAW264.7 macrophages (fraction of plate interquartile mean); higher = more bacterial growth (less inhibition). Particulars: 10 µM.

± gives the standard deviation of the averaged measurements. Over roughly 1,600 compounds, “normalized intracellular growth (luminescence, IQM-normalized) in RAW264.7 macrophages” has its median near 1; the lowest 2% begin near 0.43. The list shows a part of the results.

On to `CCCc1cc(=O)[nH]c(=S)[nH]1`, for which the normalized intracellular growth is, setting by setting: (time point: T3 (3 h)) 0.99 ± 0.023; (time point: Tfinal (~6 h)) 0.917 ± 0.3.

In the case of `COc1ccc(CCN(C)CCCC(C#N)(c2ccc(OC)c(OC)c2)C(C)C)cc1OC` (centres undefined), the normalized intracellular growth by setting is: (time point: T3 (3 h)) 0.973 ± 0.015; (time point: Tfinal (~6 h)) 1.15 ± 0.084.

Take `CO/N=C(\C(=O)N[C@@H]1C(=O)N2C(C(=O)OCOC(=O)C(C)(C)C)=C(/C=C\c3scnc3C)CS[C@H]12)c1csc(N)n1`: the normalized intracellular growth was 0.923 ± 0.047 (time point: T3 (3 h)) and 0.0689 ± 0.074 (time point: Tfinal (~6 h)).

As to `CN(N=O)C(=O)N[C@H]1C(O)O[C@H](CO)[C@@H](O)[C@@H]1O` (mixture of isomers), the normalized intracellular growth (time point: T3 (3 h)) was determined as 1.02 ± 0.08 and the normalized intracellular growth (time point: Tfinal (~6 h)) turned out to be 1.02 ± 0.1.

As for `Oc1ncnc2[nH]ncc12`, the normalized intracellular growth runs as follows: (time point: T3 (3 h)) 0.995 ± 0.024; (time point: Tfinal (~6 h)) 1.07 ± 0.1.

On to `CNCCCC1c2ccccc2C=Cc2ccccc21`, for which the normalized intracellular growth is 0.961 ± 0.051 (time point: T3 (3 h)) and 1.12 ± 0.42 (time point: Tfinal (~6 h)).

For the compound `CCOC(=O)C1=C[C@@H](OC(CC)CC)[C@H](NC(C)=O)[C@@H](N)C1`, the normalized intracellular growth is, setting by setting: (time point: T3 (3 h)) 1.01 ± 0.021; (time point: Tfinal (~6 h)) 1.33 ± 0.15.

`C[C@]12CCC(=O)C=C1CC[C@@H]1[C@@H]2[C@@H](O)C[C@@]2(C)[C@H]1CC[C@]2(O)C(=O)CO` gave a normalized intracellular growth (time point: T3 (3 h)) of 1.03 ± 0.02 and a normalized intracellular growth (time point: Tfinal (~6 h)) of 0.987 ± 0.039.

For the compound `CN[C@@H]1[C@H](O[C@H]2[C@H](O[C@H]3[C@H](O)[C@@H](O)[C@H](N=C(N)N)[C@@H](O)[C@@H]3N=C(N)N)O[C@@H](C)[C@]2(O)C=O)O[C@@H](CO)[C@H](O)[C@H]1O`, the normalized intracellular growth was 0.962 ± 0.035 (time point: T3 (3 h)) and 1 ± 0.049 (time point: Tfinal (~6 h)).

For the compound `Cc1ccc2c(Br)cc(Br)c(OC(=O)c3ccccc3)c2n1`, the normalized intracellular growth reads like this: (time point: T3 (3 h)) 0.944 ± 0.025; (time point: Tfinal (~6 h)) 1.01 ± 0.097.

Turning to `Cc1cccc(C(=O)O)c1O`, the normalized intracellular growth runs as follows: (time point: T3 (3 h)) 1.02 ± 0.085; (time point: Tfinal (~6 h)) 0.949 ± 0.16.

`OCCOCCN1CCN(C2=Nc3ccccc3Sc3ccccc32)CC1`: the normalized intracellular growth reads like this: (time point: T3 (3 h)) 0.961 ± 0.03; (time point: Tfinal (~6 h)) 1.03 ± 0.14.

For the compound `CC1(C)S[C@@H]2[C@H](NC(=O)[C@H](N)c3ccc(O)cc3)C(=O)N2[C@H]1C(=O)O`, the normalized intracellular growth by setting is: (time point: T3 (3 h)) 0.977 ± 0.028; (time point: Tfinal (~6 h)) 0.937 ± 0.094.

Turning to `COc1cccc2c1C(=O)c1c(O)c3c(c(O)c1C2=O)C[C@@](O)(C(=O)CO)C[C@@H]3O[C@H]1C[C@H](N)[C@H](O)[C@H](C)O1`, the normalized intracellular growth is, setting by setting: (time point: T3 (3 h)) 1.06 ± 0.09; (time point: Tfinal (~6 h)) 1.17 ± 0.16.

Compound `CCCCC(=O)O[C@H]1CC[C@H]2[C@@H]3CCc4cc(O)ccc4[C@H]3CC[C@]12C` showed a normalized intracellular growth (time point: T3 (3 h)) of 1.19 ± 0.18 and a normalized intracellular growth (time point: Tfinal (~6 h)) of 1.28 ± 0.099.

For `O=C(OC[C@H]1O[C@@H](OC(=O)c2cc(O)c(O)c(OC(=O)c3cc(O)c(O)c(O)c3)c2)[C@H](OC(=O)c2cc(O)c(O)c(OC(=O)c3cc(O)c(O)c(O)c3)c2)[C@@H](OC(=O)c2cc(O)c(O)c(OC(=O)c3cc(O)c(O)c(O)c3)c2)[C@@H]1OC(=O)c1cc(O)c(O)c(OC(=O)c2cc(O)c(O)c(O)c2)c1)c1cc(O)c(O)c(OC(=O)c2cc(O)c(O)c(O)c2)c1`, the normalized intracellular growth (time point: T3 (3 h)) is 1.07 ± 0.076 and the normalized intracellular growth (time point: Tfinal (~6 h)) was determined as 1.04 ± 0.059.

On to `Fc1ccc(C(c2ccc(F)cc2)N2CCN(C/C=C/c3ccccc3)CC2)cc1`, for which the normalized intracellular growth is, setting by setting: (time point: T3 (3 h)) 1.21 ± 0.077; (time point: Tfinal (~6 h)) 1.41 ± 0.075.

Consider `CN1CCc2c(c3ccccc3n2Cc2ccccc2)C1`, for which the normalized intracellular growth was 0.974 ± 0.023 (time point: T3 (3 h)) and 1.69 ± 0.3 (time point: Tfinal (~6 h)).

For the compound `Cc1ccc(Nc2c(F)cccc2Cl)c(CC(=O)O)c1`, the normalized intracellular growth runs as follows: (time point: T3 (3 h)) 0.777 ± 0.075; (time point: Tfinal (~6 h)) 0.981 ± 0.061.

In the case of `Cc1oncc1C(=O)Nc1ccc(C(F)(F)F)cc1`, the normalized intracellular growth runs as follows: (time point: T3 (3 h)) 0.987 ± 0.052; (time point: Tfinal (~6 h)) 0.73 ± 0.24.

Turning to `O=C(O)c1cccnc1Nc1cccc(C(F)(F)F)c1`, the normalized intracellular growth is, setting by setting: (time point: T3 (3 h)) 0.961 ± 0.044; (time point: Tfinal (~6 h)) 1.08 ± 0.055.

Consider `CC(CCc1ccccc1)NCC(O)c1ccc(O)c(C(N)=O)c1` (centres undefined), for which the normalized intracellular growth runs as follows: (time point: T3 (3 h)) 1.1 ± 0.07; (time point: Tfinal (~6 h)) 1.08 ± 0.3.

In turn, `CCOC(=O)[C@H](CCc1ccccc1)N[C@@H](C)C(=O)N1Cc2ccccc2C[C@H]1C(=O)O` had a normalized intracellular growth (time point: T3 (3 h)) of 0.989 ± 0.028 and a normalized intracellular growth (time point: Tfinal (~6 h)) of 0.958 ± 0.042.

`Cc1onc(-c2c(Cl)cccc2Cl)c1C(=O)N[C@@H]1C(=O)N2[C@@H]1SC(C)(C)[C@@H]2C(=O)O`: the normalized intracellular growth by setting is: (time point: T3 (3 h)) 1.03 ± 0.048; (time point: Tfinal (~6 h)) 1.04 ± 0.046.

On to `CN1C(C)(C)CCCC1(C)C`, for which the normalized intracellular growth is, setting by setting: (time point: T3 (3 h)) 1.02 ± 0.025; (time point: Tfinal (~6 h)) 0.824 ± 0.14.

Consider `C[N+](C)(C)CCCCCC[N+](C)(C)C`, for which the normalized intracellular growth reads like this: (time point: T3 (3 h)) 1.04 ± 0.016; (time point: Tfinal (~6 h)) 0.887 ± 0.077.

`CN(C)/N=N/c1[nH]cnc1C(N)=O` showed a normalized intracellular growth (time point: T3 (3 h)) of 1 ± 0.039 and a normalized intracellular growth (time point: Tfinal (~6 h)) of 0.863 ± 0.23.

For the compound `Cc1cc2c(cc1S(N)(=O)=O)S(=O)(=O)CCC2`, the normalized intracellular growth reads like this: (time point: T3 (3 h)) 1.02 ± 0.061; (time point: Tfinal (~6 h)) 0.98 ± 0.043.

As for `CC1(C)S[C@@H]2[C@H](NC(=O)[C@H](NC(=O)N3CCNC3=O)c3ccccc3)C(=O)N2[C@H]1C(=O)O`, the normalized intracellular growth worked out at 1.14 ± 0.047 (time point: T3 (3 h)) and 1.1 ± 0.028 (time point: Tfinal (~6 h)).

For the compound `NC(=O)c1cc[n+](CC2=C(C(=O)O)N3C(=O)[C@@H](NC(=O)[C@@H](c4ccccc4)S(=O)(=O)[O-])[C@H]3SC2)cc1`, the normalized intracellular growth reads like this: (time point: T3 (3 h)) 0.999 ± 0.056; (time point: Tfinal (~6 h)) 1.05 ± 0.028.

The compound `CC(C)c1ccc2oc3nc(N)c(C(=O)O)cc3c(=O)c2c1` displayed a normalized intracellular growth (time point: T3 (3 h)) of 1.016 ± 0.0075 and a normalized intracellular growth (time point: Tfinal (~6 h)) of 0.794 ± 0.13.

Consider `CCCCCCCCCc1ccc(OCCOCCOCCOCCOCCOCCOCCOCCOCCO)cc1`, for which the normalized intracellular growth turned out to be 0.99 ± 0.013 (time point: T3 (3 h)) and 1.1 ± 0.048 (time point: Tfinal (~6 h)).

As to `COC(=O)Nc1nc2cc(C(=O)c3ccccc3)ccc2[nH]1`, the normalized intracellular growth amounted to 0.995 ± 0.036 (time point: T3 (3 h)) and 1.03 ± 0.076 (time point: Tfinal (~6 h)).

As for `CCCCCCc1ccc(O)cc1O.Nc1c2ccccc2nc2ccccc12`, the normalized intracellular growth runs as follows: (time point: T3 (3 h)) 0.891 ± 0.014; (time point: Tfinal (~6 h)) 1.07 ± 0.012.

`CC(=O)Nc1ccccc1`: the normalized intracellular growth by setting is: (time point: T3 (3 h)) 1 ± 0.046; (time point: Tfinal (~6 h)) 1.12 ± 0.057.

In the case of `CSc1ccc2c(c1)C(N1CCN(C)CC1)Cc1ccccc1S2` (centres undefined), the normalized intracellular growth was found to be 0.949 ± 0.051 (time point: T3 (3 h)) and 0.886 ± 0.094 (time point: Tfinal (~6 h)).

Consider `C[C@H]1COc2c(C3(N)CC3)c(F)cc3c(=O)c(C(=O)O)cn1c23`, for which the normalized intracellular growth by setting is: (time point: T3 (3 h)) 1.36 ± 0.11; (time point: Tfinal (~6 h)) 0.00812 ± 0.0004.

`CC(C(=O)O)c1ccc2c(c1)Cc1cccnc1O2` (centres undefined): the normalized intracellular growth came to 0.949 ± 0.049 (time point: T3 (3 h)) and 1.01 ± 0.12 (time point: Tfinal (~6 h)).

In the case of `C[N+]1(C)[C@@H]2CC[C@H]1C[C@@H](OC(=O)C(O)c1ccccc1)C2` (some centres undefined), the normalized intracellular growth (time point: T3 (3 h)) stood at 0.968 ± 0.056 and the normalized intracellular growth (time point: Tfinal (~6 h)) worked out at 1.06 ± 0.025.

`COC(=O)C1=C(C)NC(C)=C(C(=O)OCCN2CCN(C(c3ccccc3)c3ccccc3)CC2)C1c1cccc([N+](=O)[O-])c1` (centres undefined): the normalized intracellular growth was 0.991 ± 0.037 (time point: T3 (3 h)) and 0.829 ± 0.1 (time point: Tfinal (~6 h)).

Regarding `CC(C)(C(=O)O)c1ccc(C(O)CCCN2CCC(C(O)(c3ccccc3)c3ccccc3)CC2)cc1` (centres undefined), the normalized intracellular growth is, setting by setting: (time point: T3 (3 h)) 1.06 ± 0.075; (time point: Tfinal (~6 h)) 1.2 ± 0.059.

Take `CN(C)CCCN1c2ccccc2Sc2ccccc21`: the normalized intracellular growth by setting is: (time point: T3 (3 h)) 1.03 ± 0.043; (time point: Tfinal (~6 h)) 1.05 ± 0.096.

The compound `NC(Cc1ccc(Cl)cc1)C(=O)O` (centres undefined) had a normalized intracellular growth (time point: T3 (3 h)) of 0.99 ± 0.05 and a normalized intracellular growth (time point: Tfinal (~6 h)) of 0.945 ± 0.1.

With `Cc1cc(C(C)(C)C)c(O)c(C)c1CC1=NCCN1`, the normalized intracellular growth was found to be 1 ± 0.044 (time point: T3 (3 h)) and 1.21 ± 0.048 (time point: Tfinal (~6 h)).

With `CC1(C)[C@H](C(=O)O)N2C(=O)C[C@H]2S1(=O)=O`, the normalized intracellular growth is, setting by setting: (time point: T3 (3 h)) 0.918 ± 0.03; (time point: Tfinal (~6 h)) 0.937 ± 0.22.

`COc1cc2c3cc1Oc1cc(ccc1O)C[C@@H]1c4c(cc(OC)c(O)c4Oc4ccc(cc4)C[C@@H]3N(C)CC2)CC[N+]1(C)C`: the normalized intracellular growth was found to be 0.937 ± 0.083 (time point: T3 (3 h)) and 0.976 ± 0.16 (time point: Tfinal (~6 h)).

For `Cc1ncc(CO)c(CO)c1O`, the normalized intracellular growth reads like this: (time point: T3 (3 h)) 1.106 ± 0.011; (time point: Tfinal (~6 h)) 1.03 ± 0.31.

Regarding `COc1cc(C(=O)NCCCCCC(=O)O)cc(OC)c1OC`, the normalized intracellular growth reads like this: (time point: T3 (3 h)) 1.07 ± 0.07; (time point: Tfinal (~6 h)) 1.11 ± 0.1.

For the compound `CC1=C(C(=O)O)N2C(=O)[C@@H](NC(=O)[C@H](N)C3=CCC=CC3)[C@H]2SC1`, the normalized intracellular growth was 1.02 ± 0.06 (time point: T3 (3 h)) and 1.11 ± 0.047 (time point: Tfinal (~6 h)).

Take `N[C@@H](CCC(=O)N[C@@H](CS)C(=O)NCC(=O)O)C(=O)O`: the normalized intracellular growth came to 1.1 ± 0.056 (time point: T3 (3 h)) and 0.832 ± 0.11 (time point: Tfinal (~6 h)).

`CC1=C(/C=C/C(C)=C/C=C/C(C)=C/C(=O)O)C(C)(C)CCC1`: the normalized intracellular growth worked out at 0.976 ± 0.11 (time point: T3 (3 h)) and 0.943 ± 0.16 (time point: Tfinal (~6 h)).

For the compound `NC[C@@H]1CC[C@@H](N)[C@@H](O[C@H]2[C@H](O)[C@@H](O[C@H]3O[C@H](CO)[C@@H](O)[C@H](N)[C@H]3O)[C@H](N)C[C@@H]2N)O1`, the normalized intracellular growth by setting is: (time point: T3 (3 h)) 1.04 ± 0.023; (time point: Tfinal (~6 h)) 0.976 ± 0.13.

These data come from the supplement of paper PMC6331611.
